Publication PMC3568144, “Pseudomonas aeruginosa PA1006 Is a Persulfide-Modified Protein That Is Critical for Molybdenum Homeostasis” (PLoS ONE, 2013)
Results are given in words; binding and its absence hold for the method and conditions named. In cells and extracts the contact can be indirect. Some binding calls cover weakened binding; strength is not graded here. Tags and fused reporters may be left off the sequences shown.

Sequences of proteins named here, by UniProt entry; tags and fusion partners are left off.
UniProt Q9HXI8: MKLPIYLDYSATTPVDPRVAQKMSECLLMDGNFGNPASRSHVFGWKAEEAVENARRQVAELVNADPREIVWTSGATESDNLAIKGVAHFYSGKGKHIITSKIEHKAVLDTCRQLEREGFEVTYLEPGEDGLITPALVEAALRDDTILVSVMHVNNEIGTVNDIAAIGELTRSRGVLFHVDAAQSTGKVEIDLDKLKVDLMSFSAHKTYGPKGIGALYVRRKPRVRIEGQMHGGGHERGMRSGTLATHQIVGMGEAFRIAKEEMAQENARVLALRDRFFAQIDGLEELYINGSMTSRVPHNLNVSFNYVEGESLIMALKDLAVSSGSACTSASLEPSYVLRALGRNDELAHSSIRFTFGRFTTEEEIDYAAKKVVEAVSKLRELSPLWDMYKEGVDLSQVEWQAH

T1: PA1006 (GFP-PFCA fusion in Pae) (Pseudomonas aeruginosa) (UniProt Q9I4W7)
T1 sequence: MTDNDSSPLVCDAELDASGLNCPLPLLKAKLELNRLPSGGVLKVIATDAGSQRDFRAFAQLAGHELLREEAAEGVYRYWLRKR


How the values were obtained:
[1] = molecular target: T1, PA1006 (GFP-PFCA fusion in Pae) (Pseudomonas aeruginosa); test: split reporter; GFP protein fragment complementation assay (GFP-PFCA) in P. aeruginosa cells; NGFP fusion from pEX1.8 (IPTG), CGFP fusion from the chromosome (arabinose); scored by eye with fluorescence microscopy
[2] = molecular target: PA3814/IscS (GFP-PFCA fusion in Pae) (Pseudomonas aeruginosa) (UniProt Q9HXI8); test: as above

Row | binding [1] | binding [2] | Binder
1 | binds |  | PA3030/MobA (GFP-PFCA fusion in Pae) (protein, UniProt O68799 1-198) MPDSALPPCSILLLAGGRGQRMGGRDKGLIEWQGLPLIAHLHRLVRPLTDDLIVSCNRNQERYAAYADRVVSDDSRDFPGPLAGIRAGLAVARHPWLLVLPCDAPRIDRALLETLLQAAGRTPARPWMLRCGGQWEPLFSLIPTHLAEEIEHAWRQGDRSPRHVLLPLGAEAIELAAGDPRLANLNTPELLANHRELK
2 | binds | binds | PA1564/YhhP/TusA (GFP-PFCA fusion in Pae) (protein, UniProt Q9I3F3 1-79) MTHSVDAILDATGLNCPEPVMMLHNKVRDLAPGGLLKVIATDPSTRRDIPKFCVFLGHELVEQQEEAGTYLYWIRKKAD
3 | binds |  | PA3873/NarJ (GFP-PFCA fusion in Pae) (protein, UniProt G3XCY9 1-246) MNDHSQLFRLLALLLDYPRAELREESLGLHALIRTCELPEALRDGLAALLNELCQGDLLDVQARYDGLFERGRSVSLLLFEHVHGESRDRGQAMVDLLDRYTGAGLQIDVPELPDYLPLYLEYLSLLPFAAASEGLAEVAHILGLLALRLEERGSAYAAIFEALLELGGERPDLGALRRDQAQEQRDDSLEAIDRAWEETPVSFTDPAGGCPSSSGRRPTASTEQPLQWVAQPVPQMQYRAAREGV
4 | binds |  | PA3874/NarH (GFP-PFCA fusion in Pae) (protein, UniProt G3XD87 1-513) MKIRSQVGMVLNLDKCIGCHTCSITCKNVWTSREGMEYAWFNNVETKPGIGYPKEWENQEKWKGGWVRAADGSIRPRIGGKFRVLANIFANPDLPEIDDYYEPFDFDYQHLHTAPKAEHQPVARPRSLVSGQRMEKIEWGPNWEEILGTEFAKRRKDKNFDQVQADIYGEYENTFMMYLPRLCEHCLNPACVASCPSGAIYKREEDGIVLIDQDKCRGWRMCISGCPYKKIYFNWKSGKSEKCIFCYPRIEAGQPTVCSETCVGRIRYLGVLLYDADRIHEVASCENERELYEKQLEIFLDPFDPAVIAQARKDGVADSVIEAAQKSPVYKLAMDWKLALPLHPEYRTLPMVWYVPPLSPIQNAAAEGHIGSDGVIPDVESLRIPVQYLANLLTAGDTAPVLLALKRLLAMRAYKRAEHVEGRQDLEVLAKVGLSVEQVEEMYRYLAIANYEDRFVIPSAHREEALSDAFAERSGCGFSFGNGCSGGSNSAVNLFGGKPTNRRDVIQVVQIQE
5 | binds |  | PA3918/MoaC (GFP-PFCA fusion in Pae) (protein, UniProt Q9HX95 1-160) MLTHLDSQGRANMVDVTEKAVTSREATAEAVVRMRPETLQLIQDGGHPKGDVFAVARIAGIQAAKRTHELIPLCHPLLLTSVKLELQAEAPDAVRIRARCRLAGQTGVEMEALTAASVAALTIYDMCKAVDRGMVIEQVQLLEKLGGKSGHYRKEEEGQA
6 | no binding |  | PA3916/MoaE (GFP-PFCA fusion in Pae) (protein, UniProt Q9HX97 1-150) MAIRVQQAAFDPGQELNALHAQNVGIGAVVGFVGYVRDFNDGREVGGMFLEHYPGMTEKALGKIAAEAGQRWPLLRLEILHRIGRLEPGEPIVFVGCASAHRQAAFDACNFVMDYLKTRAPFWKKEDTAEGPRWVEGRCSDQAAAQRWEE
7 | binds |  | PA1505/MoaA2 (GFP-PFCA fusion in Pae) (protein, UniProt Q9I3K7 1-331) MSDSRLVDPFGRRITYLRLSVTDRCDFRCTYCMSEDMQFLPRDQVLSLEELYAVADAFIGLGVRRIRITGGEPLVRKGITGLLARLGQRAELEDLAITTNGSQLRERAAELKAAGVRRLNVSLDSLQRERFAAFTRSDRLEQVLDGIQAAREAGFERIKLNCVVQKGRNDDEILDLVEYALANQLDISFIEEMPLGSITSHRRELTLCTSDEVRAIIERRWPLTPSLARSGGPSRYYQIGDEPSRIGFISPHSNNFCGDCNRVRVTAEGKLVLCLGHEGALDLRELLRSHPGDRERLSAALVAALNLKPERHHFDAQEQVQVLRFMSMTGG

Row | Binder | binding [1] | binding [2]
8 | PA3870/MoaA1 (GFP-PFCA fusion in Pae) (protein, UniProt Q9HXD6 1-329) MTDWIDGQGRQIDYLRLSVTDRCDFRCVYCMAEDMRFLPRQQVLTLEEIERVARLFVAGGVRKLRLTGGEPLVRPGIVGLCERLAALPGLRELCMTSNGSQLVRYARPLYDAGLSRLNISLDTLDPLRFRAITRNGELDKVLAGIDAAQAAGFRRIKLNAVVMKGRNADEVPALVDFAIARGLDISFIEEMPLGQVGRERGESFCSSDEVRALIAQRHALLDSAEQSGGPARYVRLVEHPQTRIGFISPHSHNFCATCNRLRLTVEGRLLLCLGHEHSLDLRALLRRHPLHDGPLLEAIGEALQRKPARHEFSAAGEVQVLRFMNMSGG | binds | 
